PubChem BioAssay AID1259254 | NCATS – 2017
Test: 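Genome-wide screen for genes that prevent DNA re-replication in cancer cells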 (primary screen). Cells: human HCT116 colorectal cancer cells. Reagents: single siRNA against human genes. Duration: 3 days. Read-out: 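Imaged Hoechst DNA stain sorts each cell into a cycle phase by DNA amount; per plate, G2 fraction set to 0% for non-targeting and 100% for GMNN siRNA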. Direction: G2 robust z-score and G2 cells, % of GMNN control: higher = more G2 cells, more excess DNA replication; raw share of cells in G2: higher = larger share of cells with G2 DNA content. Hit rule: 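An siRNA counts as active if its G2 robust z-score lies at least 5 MADs above the screen median; here such calls match roughly 38% of GMNN control or more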.
The whole screen tested about 59,000 reagents; this is an unselected part. About 1,550 of them (2.6%) were called active. 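G2 share is only a proxy for re-replication; each gene was hit by three separate siRNAs, and active genes were retested.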 Raw values vary from plate to plate and are shown uncorrected. A number with no mark means an inactive call. The numbers tell different reagents against one gene apart. Not stated in the record: the amount of reagent.

gene symbol | reagent | G2 robust z-score | G2 cells, % of GMNN control | raw share of cells in G2 (%)
ITPR1 (inositol 1,4,5-trisphosphate receptor type 1) | 1 | 1.94 | 16.6 | 11.3
ITPR1 (inositol 1,4,5-trisphosphate receptor type 1) | 2 | 0.608 | 7.24 | 7.23
ITPR1 (inositol 1,4,5-trisphosphate receptor type 1) | 3 | 2.65 | 21.6 | 12.8
H1-2 (H1.2 linker histone, cluster member) | 1 | 3.11 | 24.9 | 13.2
H1-2 (H1.2 linker histone, cluster member) | 2 | 1.24 | 11.7 | 8.11
H1-2 (H1.2 linker histone, cluster member) | 3 | 0.464 | 6.23 | 8.22
DRGX (dorsal root ganglia homeobox) | 1 | -0.468 | -0.328 | 3.05
DRGX (dorsal root ganglia homeobox) | 2 | 0.689 | 7.81 | 6.61
DRGX (dorsal root ganglia homeobox) | 3 | 2.24 | 18.7 | 10
OR4S2 (olfactory receptor family 4 subfamily S member 2) | 1 | -0.902 | -3.38 | 2.35
OR4S2 (olfactory receptor family 4 subfamily S member 2) | 2 | 2 | 17.1 | 8.98
OR4S2 (olfactory receptor family 4 subfamily S member 2) | 3 | -0.344 | 0.548 | 3.37
SCGB2A2 (secretoglobin family 2A member 2) | 1 | 2.18 | 18.3 | 12.8
SCGB2A2 (secretoglobin family 2A member 2) | 2 | 1.51 | 13.6 | 9.6
SCGB2A2 (secretoglobin family 2A member 2) | 3 | -0.109 | 2.2 | 4.15
CLUL1 (clusterin like 1) | 1 | -1.13 | -5 | 1.94
CLUL1 (clusterin like 1) | 2 | 2.02 | 17.2 | 11.1
CLUL1 (clusterin like 1) | 3 | -1.3 | -6.17 | 1.31
PCDHGA1 (protocadherin gamma subfamily A, 1) | 1 | -0.645 | -1.57 | 5.74
PCDHGA1 (protocadherin gamma subfamily A, 1) | 2 | -1.19 | -5.43 | 2.49
PCDHGA1 (protocadherin gamma subfamily A, 1) | 3 | 0.269 | 4.86 | 6.36
SLC27A5 | 1 | -0.0131 | 2.88 | 4.77
SLC27A5 | 2 | -0.929 | -3.57 | 5.07
SLC27A5 | 3 | 2.01 | 17.1 | 13.1
SPTLC2 (serine palmitoyltransferase long chain base subunit 2) | 1 | 0.867 | 9.07 | 8.63
SPTLC2 (serine palmitoyltransferase long chain base subunit 2) | 2 | -0.356 | 0.46 | 3.36
SPTLC2 (serine palmitoyltransferase long chain base subunit 2) | 3 | -0.0385 | 2.7 | 5.84
OR6X1 (olfactory receptor family 6 subfamily X member 1) | 1 | 0.82 | 8.74 | 6.77
OR6X1 (olfactory receptor family 6 subfamily X member 1) | 2 | 4.6 | 35.3 | 18.8
OR6X1 (olfactory receptor family 6 subfamily X member 1) | 3 | 0.0852 | 3.57 | 6.16
OR5AU1 (olfactory receptor family 5 subfamily AU member 1) | 1 | -0.719 | -2.09 | 3.06
OR5AU1 (olfactory receptor family 5 subfamily AU member 1) | 2 | 2.06 | 17.5 | 11
OR5AU1 (olfactory receptor family 5 subfamily AU member 1) | 3 | -0.603 | -1.28 | 4.09
RAPGEF3 (Rap guanine nucleotide exchange factor 3) | 1 | 1.48 | 13.4 | 11.5
RAPGEF3 (Rap guanine nucleotide exchange factor 3) | 2 | -0.101 | 2.26 | 4.57
RAPGEF3 (Rap guanine nucleotide exchange factor 3) | 3 | 0.887 | 9.21 | 10.1
DPH3 (diphthamide biosynthesis 3) | 1 | -0.4 | 0.154 | 3.7
DPH3 (diphthamide biosynthesis 3) | 2 | -0.442 | -0.146 | 2.99
DPH3 (diphthamide biosynthesis 3) | 3 | -0.298 | 0.869 | 3.53
QTRT1 (queuine tRNA-ribosyltransferase catalytic subunit 1) | 1 | 6.26 (active) | 47 | 22.2
QTRT1 (queuine tRNA-ribosyltransferase catalytic subunit 1) | 2 | -0.823 | -2.82 | 4.25
QTRT1 (queuine tRNA-ribosyltransferase catalytic subunit 1) | 3 | -0.783 | -2.54 | 3.27
TOMM7 (translocase of outer mitochondrial membrane 7) | 1 | 0.667 | 7.66 | 6.35
TOMM7 (translocase of outer mitochondrial membrane 7) | 2 | 1.49 | 13.5 | 9.95
TOMM7 (translocase of outer mitochondrial membrane 7) | 3 | -0.967 | -3.84 | 1.92
ITGAL (integrin subunit alpha L) | 1 | -0.999 | -4.06 | 4.14
ITGAL (integrin subunit alpha L) | 2 | 1.07 | 10.5 | 8.86
ITGAL (integrin subunit alpha L) | 3 | 2.3 | 19.1 | 11.2
BHLHE22 (basic helix-loop-helix family member e22) | 1 | -0.309 | 0.796 | 4.16
BHLHE22 (basic helix-loop-helix family member e22) | 2 | -0.196 | 1.59 | 5.15
BHLHE22 (basic helix-loop-helix family member e22) | 3 | -0.631 | -1.47 | 2.79
ACSL6 (acyl-CoA synthetase long chain family member 6) | 1 | -0.961 | -3.8 | 2.89
ACSL6 (acyl-CoA synthetase long chain family member 6) | 2 | 6.38 (active) | 47.9 | 25.6
ACSL6 (acyl-CoA synthetase long chain family member 6) | 3 | -0.886 | -3.27 | 2.75
TEAD2 (TEA domain transcription factor 2) | 1 | 0.29 | 5.01 | 5.19
TEAD2 (TEA domain transcription factor 2) | 2 | 0.557 | 6.89 | 9.06
TEAD2 (TEA domain transcription factor 2) | 3 | -0.361 | 0.425 | 3.52
SH2D7 (SH2 domain containing 7) | 1 | -0.421 | 0.00352 | 3.78
SH2D7 (SH2 domain containing 7) | 2 | -0.638 | -1.52 | 2.66
SH2D7 (SH2 domain containing 7) | 3 | 5.02 (active) | 38.3 | 15.2
MTCH1 | 1 | 1.31 | 12.2 | 11.7
MTCH1 | 2 | -1.21 | -5.55 | 2.17
MTCH1 | 3 | 3.41 | 26.9 | 13.1
NHLRC1 (NHL repeat containing E3 ubiquitin protein ligase 1) | 1 | -0.328 | 0.661 | 4.53
NHLRC1 (NHL repeat containing E3 ubiquitin protein ligase 1) | 2 | -0.458 | -0.258 | 5.79
NHLRC1 (NHL repeat containing E3 ubiquitin protein ligase 1) | 3 | 4.86 | 37.2 | 19.5
ZNF593 (zinc finger protein 593) | 1 | 0.981 | 9.87 | 7.58
ZNF593 (zinc finger protein 593) | 2 | 4.2 | 32.5 | 20.7
ZNF593 (zinc finger protein 593) | 3 | -0.639 | -1.53 | 3.68

6 entries from above, sorted by “G2 cells, % of GMNN control”, high to low.
gene symbol | reagent | G2 robust z-score | G2 cells, % of GMNN control | raw share of cells in G2 (%)
TOMM7 (translocase of outer mitochondrial membrane 7) | 2 | 1.49 | 13.5 | 9.95
TOMM7 (translocase of outer mitochondrial membrane 7) | 1 | 0.667 | 7.66 | 6.35
QTRT1 (queuine tRNA-ribosyltransferase catalytic subunit 1) | 3 | -0.783 | -2.54 | 3.27
QTRT1 (queuine tRNA-ribosyltransferase catalytic subunit 1) | 2 | -0.823 | -2.82 | 4.25
TOMM7 (translocase of outer mitochondrial membrane 7) | 3 | -0.967 | -3.84 | 1.92
ITGAL (integrin subunit alpha L) | 1 | -0.999 | -4.06 | 4.14
